Test results published in paper PMC4598566.
No constants are given. Whether binding was seen depends on the method and setting. Some entries that bind do so weakly or less than the wild type.

Protein sequences, listed by entry. Tags and fused reporters are not part of them.
UniProt P60484: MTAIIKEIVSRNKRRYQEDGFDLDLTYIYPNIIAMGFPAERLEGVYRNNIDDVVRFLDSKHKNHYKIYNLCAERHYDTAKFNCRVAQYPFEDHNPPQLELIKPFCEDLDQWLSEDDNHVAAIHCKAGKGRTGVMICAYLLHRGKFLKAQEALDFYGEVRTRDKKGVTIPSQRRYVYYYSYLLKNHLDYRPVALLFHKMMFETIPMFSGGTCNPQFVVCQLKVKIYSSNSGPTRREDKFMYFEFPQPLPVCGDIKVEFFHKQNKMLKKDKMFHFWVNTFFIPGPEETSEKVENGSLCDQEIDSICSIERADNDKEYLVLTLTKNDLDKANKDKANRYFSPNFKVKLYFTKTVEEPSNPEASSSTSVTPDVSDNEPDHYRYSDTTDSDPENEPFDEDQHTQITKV
UniProt O00459: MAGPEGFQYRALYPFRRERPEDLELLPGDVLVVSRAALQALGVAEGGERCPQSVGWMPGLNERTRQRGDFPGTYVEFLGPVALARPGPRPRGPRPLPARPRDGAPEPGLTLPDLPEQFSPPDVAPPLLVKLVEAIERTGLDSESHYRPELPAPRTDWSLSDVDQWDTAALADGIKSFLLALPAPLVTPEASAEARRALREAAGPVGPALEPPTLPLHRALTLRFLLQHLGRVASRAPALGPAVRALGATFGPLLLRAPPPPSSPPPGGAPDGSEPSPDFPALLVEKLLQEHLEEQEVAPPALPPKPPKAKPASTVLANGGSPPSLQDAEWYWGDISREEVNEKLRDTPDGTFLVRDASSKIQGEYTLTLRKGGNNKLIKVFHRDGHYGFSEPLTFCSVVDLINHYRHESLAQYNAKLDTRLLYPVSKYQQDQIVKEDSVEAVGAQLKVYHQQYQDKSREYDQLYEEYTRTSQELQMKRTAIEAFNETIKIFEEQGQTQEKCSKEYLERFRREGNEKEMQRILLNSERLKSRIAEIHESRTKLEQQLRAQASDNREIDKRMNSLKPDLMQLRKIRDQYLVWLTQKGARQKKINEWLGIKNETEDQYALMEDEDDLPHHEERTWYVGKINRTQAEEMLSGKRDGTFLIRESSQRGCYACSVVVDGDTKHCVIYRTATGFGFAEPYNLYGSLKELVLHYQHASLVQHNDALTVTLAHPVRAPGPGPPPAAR

Target: PTEN fused to Renilla luciferase (UniProt P60484)
Experiment: LUMIER; automated luminescence-based mammalian interactome screen; Renilla luciferase-PTEN as bait against a collection of eighty 3Flag-tagged preys; luminescence intensity ratio, average of two independent screens

binding: binds
Substance: 3Flag-tagged PIK3R2 (LUMIER prey) (from UniProt O00459 1-728)
